Reference: publication PMC9893415
No constants are given. Whether binding was seen depends on the method and setting. In cells and extracts the contact can be indirect. Some binding calls cover weakened binding; strength is not graded here. Tags and fused reporters may be left off the sequences shown. One block for each binder: values may come before it.

Amino acid sequences for entries named in this document (tags omitted).
UniProt Q9LUD7: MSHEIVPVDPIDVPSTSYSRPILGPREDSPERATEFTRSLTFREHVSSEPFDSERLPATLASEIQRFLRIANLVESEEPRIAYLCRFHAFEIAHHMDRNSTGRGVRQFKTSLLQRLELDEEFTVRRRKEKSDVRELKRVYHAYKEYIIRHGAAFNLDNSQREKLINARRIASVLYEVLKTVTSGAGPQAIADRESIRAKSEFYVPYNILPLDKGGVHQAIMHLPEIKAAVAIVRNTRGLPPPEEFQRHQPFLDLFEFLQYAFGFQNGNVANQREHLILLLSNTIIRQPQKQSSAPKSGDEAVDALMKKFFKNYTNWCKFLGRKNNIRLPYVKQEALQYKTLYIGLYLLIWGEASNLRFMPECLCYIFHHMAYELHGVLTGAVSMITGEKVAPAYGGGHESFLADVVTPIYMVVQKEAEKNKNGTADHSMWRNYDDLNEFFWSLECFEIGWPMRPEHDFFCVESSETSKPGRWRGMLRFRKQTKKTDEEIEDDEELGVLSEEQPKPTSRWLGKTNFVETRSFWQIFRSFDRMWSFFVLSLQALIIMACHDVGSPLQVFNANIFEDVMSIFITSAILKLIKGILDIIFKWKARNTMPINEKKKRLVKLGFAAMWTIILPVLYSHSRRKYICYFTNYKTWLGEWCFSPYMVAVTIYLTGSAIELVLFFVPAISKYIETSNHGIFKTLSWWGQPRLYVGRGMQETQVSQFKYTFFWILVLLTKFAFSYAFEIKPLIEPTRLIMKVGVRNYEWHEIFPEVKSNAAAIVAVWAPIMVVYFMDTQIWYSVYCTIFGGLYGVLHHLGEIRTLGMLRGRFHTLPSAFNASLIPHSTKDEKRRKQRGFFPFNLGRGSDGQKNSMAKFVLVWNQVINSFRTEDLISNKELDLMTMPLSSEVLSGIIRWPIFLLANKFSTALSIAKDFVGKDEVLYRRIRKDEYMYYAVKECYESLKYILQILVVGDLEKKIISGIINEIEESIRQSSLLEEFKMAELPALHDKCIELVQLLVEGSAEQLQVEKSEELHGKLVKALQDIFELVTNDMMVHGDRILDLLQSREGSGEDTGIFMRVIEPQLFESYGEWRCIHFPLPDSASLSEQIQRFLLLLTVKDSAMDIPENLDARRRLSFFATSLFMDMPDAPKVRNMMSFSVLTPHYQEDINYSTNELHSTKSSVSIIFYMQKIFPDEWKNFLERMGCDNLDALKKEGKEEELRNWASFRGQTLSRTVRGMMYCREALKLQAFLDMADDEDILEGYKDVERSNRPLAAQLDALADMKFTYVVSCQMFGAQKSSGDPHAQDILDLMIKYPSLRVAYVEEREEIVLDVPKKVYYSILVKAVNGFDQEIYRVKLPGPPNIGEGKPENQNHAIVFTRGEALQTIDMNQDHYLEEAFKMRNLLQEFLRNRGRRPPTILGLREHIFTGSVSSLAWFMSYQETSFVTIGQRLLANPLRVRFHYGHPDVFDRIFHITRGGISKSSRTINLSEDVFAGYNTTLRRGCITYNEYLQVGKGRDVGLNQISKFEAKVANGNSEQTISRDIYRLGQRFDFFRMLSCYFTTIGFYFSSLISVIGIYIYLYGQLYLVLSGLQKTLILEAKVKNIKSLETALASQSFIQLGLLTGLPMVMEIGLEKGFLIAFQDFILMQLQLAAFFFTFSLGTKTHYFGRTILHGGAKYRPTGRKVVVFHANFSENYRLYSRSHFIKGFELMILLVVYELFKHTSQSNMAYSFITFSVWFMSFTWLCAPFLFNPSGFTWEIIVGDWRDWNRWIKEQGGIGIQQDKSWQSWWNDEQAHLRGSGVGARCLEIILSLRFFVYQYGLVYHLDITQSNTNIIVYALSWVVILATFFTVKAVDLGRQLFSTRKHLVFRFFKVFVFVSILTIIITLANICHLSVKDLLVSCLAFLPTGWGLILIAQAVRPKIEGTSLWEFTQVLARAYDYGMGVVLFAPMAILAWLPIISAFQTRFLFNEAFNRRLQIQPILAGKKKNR
UniProt Q9SJM0: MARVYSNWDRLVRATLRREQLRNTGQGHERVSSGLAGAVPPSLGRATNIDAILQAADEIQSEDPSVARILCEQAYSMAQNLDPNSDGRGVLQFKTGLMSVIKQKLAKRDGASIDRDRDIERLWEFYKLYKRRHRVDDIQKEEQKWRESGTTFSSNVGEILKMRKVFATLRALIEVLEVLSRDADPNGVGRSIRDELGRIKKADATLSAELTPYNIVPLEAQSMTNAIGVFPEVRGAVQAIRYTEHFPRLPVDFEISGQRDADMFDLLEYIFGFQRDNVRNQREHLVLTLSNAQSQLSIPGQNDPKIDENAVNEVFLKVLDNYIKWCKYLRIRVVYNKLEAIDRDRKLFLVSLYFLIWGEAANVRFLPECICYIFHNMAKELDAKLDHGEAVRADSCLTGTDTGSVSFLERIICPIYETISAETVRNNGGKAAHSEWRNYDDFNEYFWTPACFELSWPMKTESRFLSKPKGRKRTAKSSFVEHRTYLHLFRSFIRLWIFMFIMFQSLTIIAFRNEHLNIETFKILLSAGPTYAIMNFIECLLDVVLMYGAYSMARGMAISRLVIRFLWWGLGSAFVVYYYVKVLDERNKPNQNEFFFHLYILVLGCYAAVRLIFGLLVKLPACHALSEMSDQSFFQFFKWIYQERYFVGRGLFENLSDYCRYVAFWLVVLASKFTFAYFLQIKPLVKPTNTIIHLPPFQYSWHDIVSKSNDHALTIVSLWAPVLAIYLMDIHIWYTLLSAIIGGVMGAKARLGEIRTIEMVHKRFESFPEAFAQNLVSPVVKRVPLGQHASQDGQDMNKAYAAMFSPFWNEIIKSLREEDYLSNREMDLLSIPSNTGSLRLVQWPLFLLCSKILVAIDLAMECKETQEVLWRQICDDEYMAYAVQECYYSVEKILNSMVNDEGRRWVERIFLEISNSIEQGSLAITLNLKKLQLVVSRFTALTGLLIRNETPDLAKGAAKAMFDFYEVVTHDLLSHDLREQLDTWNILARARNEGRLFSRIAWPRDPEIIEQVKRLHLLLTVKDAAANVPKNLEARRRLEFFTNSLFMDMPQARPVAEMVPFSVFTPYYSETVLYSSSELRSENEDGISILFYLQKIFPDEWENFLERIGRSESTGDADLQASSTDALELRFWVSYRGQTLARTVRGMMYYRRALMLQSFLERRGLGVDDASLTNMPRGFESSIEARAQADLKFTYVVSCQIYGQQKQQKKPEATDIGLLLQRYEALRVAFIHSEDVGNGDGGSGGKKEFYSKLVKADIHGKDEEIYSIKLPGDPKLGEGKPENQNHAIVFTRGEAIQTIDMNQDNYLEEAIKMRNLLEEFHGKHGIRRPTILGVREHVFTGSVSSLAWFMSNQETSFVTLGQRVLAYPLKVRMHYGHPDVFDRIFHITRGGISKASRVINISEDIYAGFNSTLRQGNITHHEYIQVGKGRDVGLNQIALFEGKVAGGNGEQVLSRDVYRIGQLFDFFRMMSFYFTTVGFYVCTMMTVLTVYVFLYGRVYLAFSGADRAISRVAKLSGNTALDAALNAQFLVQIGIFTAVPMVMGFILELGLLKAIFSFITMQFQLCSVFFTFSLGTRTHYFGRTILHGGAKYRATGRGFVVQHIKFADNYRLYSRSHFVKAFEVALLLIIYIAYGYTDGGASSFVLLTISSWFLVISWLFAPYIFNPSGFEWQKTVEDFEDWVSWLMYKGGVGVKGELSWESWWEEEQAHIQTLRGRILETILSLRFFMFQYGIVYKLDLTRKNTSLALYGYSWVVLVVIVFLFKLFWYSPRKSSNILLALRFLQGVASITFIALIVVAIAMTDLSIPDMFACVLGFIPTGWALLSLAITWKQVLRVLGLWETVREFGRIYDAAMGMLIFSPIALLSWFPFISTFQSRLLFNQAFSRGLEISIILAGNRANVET

Legend:
[1] = target: GLUCAN SYNTHASE-LIKE 4 (GSL4) fused to the C-terminal YFP fragment (Arabidopsis thaliana) (UniProt Q9LUD7); assay: split reporter; split-YFP fusions (YFP^n and YFP^c) co-expressed by Agrobacterium infiltration in N. benthamiana leaves; confocal microscopy after 2-3 days; also imaged 2 hours after spraying with eH2O2
[2] = target: T1, calmodulin-like protein 41 (CML41) fused to the C-terminal YFP fragment (Arabidopsis thaliana) (UniProt Q8L3R2); assay: as above
T1 sequence: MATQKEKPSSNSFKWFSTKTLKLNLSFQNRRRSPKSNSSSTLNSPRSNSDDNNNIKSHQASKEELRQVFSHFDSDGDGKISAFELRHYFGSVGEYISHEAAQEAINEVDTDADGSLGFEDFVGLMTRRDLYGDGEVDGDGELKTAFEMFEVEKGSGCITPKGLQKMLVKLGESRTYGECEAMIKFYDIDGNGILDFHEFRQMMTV

[3] = target: GFP-tagged GLUCAN SYNTHASE-LIKE 4 (GSL4) (Arabidopsis thaliana) (UniProt Q9LUD7); assay: co-IP; NCRK (PDRLK1)-HA and GFP-tagged partners co-infiltrated in N. benthamiana leaves; lysate in IP buffer (100 mM Tris-HCl pH 7.5, 150 mM NaCl, 1 mM EDTA, 0.5% IGEPAL); anti-GFP antibody on protein A agarose, 2 hours at 4°C; immunoblotting
[4] = target: T2, GFP-tagged calmodulin-like protein 41 (CML41) (Arabidopsis thaliana) (UniProt Q8L3R2); assay: as above
T2 sequence: T1 sequence

[5] = target: GFP-tagged GSL8 (Arabidopsis thaliana) (UniProt Q9SJM0); assay: as above

binding [1]: binds | binding [2]: binds
B1: NOVEL CYS-RICH RECEPTOR KINASE (NCRK) fused to the N-terminal YFP fragment (receptor, UniProt Q8VYY5 24-565)
chain: GVSNYTCTCFSSGNRSDILESNCSTSCNCRPDRDQWVCLCPANGFPVIAIGGSNSSCFTSCNCSAGATKSSKKQYLSRKLVIVILLFCGVLISLAFLASMICYICRKDKFSGQTPSVSSDRESSWHSSANLINRKSSVSQSKISISSSVAGCFFQNASLFCVSKPETIHGAIFQFSYTELEQATNKFSSNSVIGHGGSSCVYRGQLKDGKTAAIKRLNTPKGDDTDTLFSTEVELLSRLHHYHVVPLIGYCSEFHGKHAERLLVFEYMSYGSLRDCLDGELGEKMTWNIRISVALGAARGLEYLHEAAAPRILHRDVKSTNILLDENWHAKITDLGMAKCLSSDGLQSGSSSPTTGLQGTFGYFAPEYAIAGCASQMSDVFSFGVVLLELITGRKPIQKPSNNKGEESLVIWAVPRLQDSKRVIEELPDPRLNGKFAEEEMQIMAYLAKECLLLDPESRPTMREVVQILSTITPDTSSRRRNFPINYLFQSNEKKKESKVGWSRGGSKSGQEEETVDLTEPRFESFCLPNVKPVLLEPSAHI

binding [3]: binds | binding [4]: binds | binding [5]: binds
B2: NOVEL CYS-RICH RECEPTOR KINASE (NCRK), HA-tagged (receptor, UniProt Q8VYY5 24-565)
chain: B1 chain
